# Laboratory results published in PubChem BioAssay AID1671190 (National Center for Advancing Translational Sciences (NCATS), 2021).
# By UniProt entry, the sequences of proteins in these tests, tags left out. Where a name states a change or a piece, a line headed by the entry shows the natural chain unless it says otherwise.
# UniProt P18054: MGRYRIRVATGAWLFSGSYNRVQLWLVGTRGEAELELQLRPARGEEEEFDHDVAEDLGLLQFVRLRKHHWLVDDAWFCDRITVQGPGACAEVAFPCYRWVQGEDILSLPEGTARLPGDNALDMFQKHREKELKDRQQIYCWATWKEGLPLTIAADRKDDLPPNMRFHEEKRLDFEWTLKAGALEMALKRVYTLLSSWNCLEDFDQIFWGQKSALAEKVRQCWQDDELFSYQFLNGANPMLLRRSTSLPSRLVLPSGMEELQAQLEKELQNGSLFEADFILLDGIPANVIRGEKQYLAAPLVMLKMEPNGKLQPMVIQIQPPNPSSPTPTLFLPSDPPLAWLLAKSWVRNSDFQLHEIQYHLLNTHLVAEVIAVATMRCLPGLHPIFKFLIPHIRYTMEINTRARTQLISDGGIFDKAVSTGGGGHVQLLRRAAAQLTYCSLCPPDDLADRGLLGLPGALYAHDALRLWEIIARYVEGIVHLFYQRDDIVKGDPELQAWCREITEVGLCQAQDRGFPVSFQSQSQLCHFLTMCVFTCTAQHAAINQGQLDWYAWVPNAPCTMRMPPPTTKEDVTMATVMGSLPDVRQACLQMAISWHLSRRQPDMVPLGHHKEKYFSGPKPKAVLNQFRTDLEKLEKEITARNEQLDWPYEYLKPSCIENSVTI
# About 6,100 (1.1%) of roughly 580,000 compounds were called active. The inconclusive results got no clear call from the source; some entries with a clear call stand among them for comparison. Calls follow the shape of the dose curve; as a rule, active = well fitted inhibition curve with a large enough effect; inconclusive = small, poorly fitted or top-dose-only effect, or another doubt; inactive = no such curve, though single readings can be large or run the other way. Where the call is inconclusive, the potency comes from a doubtful curve fit.
# Biological target: Polyunsaturated fatty acid lipoxygenase ALOX12 (Homo sapiens) (UniProt P18054)
# Assay: Primary qHTS assay for inhibitors of human arachidonate 12S-lipoxygenase (ALOX12): Round 2
# Conditions: purified 12hLO, xylenol orange hydroperoxide absorbance; activity change, negative = inhibition: at 108 µM (top of the series) unless noted
# In short: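 Purified human 12hLO (150 nM final) in 25 mM Hepes, 0.01% Triton X-100, pH 7.0 was preincubated 15 min at room temperature with compound. Then 40 uM arachidonic acid was added, 30 min. Hydroperoxide was read by Fe-XO absorbance ratio 573/405 nm.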
# % is scaled to controls: 0 for no effect and ±100 for the full control effect; potency is read from the fitted curve at half-maximal effect.
SMILES,Potency,"activity change, negative = inhibition"
Cc1c(Cl)ccc2c(C(O)CBr)cc(-c3ccccc3)nc12 (stereo not drawn),"inconclusive: 126 µM [inhibitor, partial curve, poor fit]",–
COc1ccc(Br)cc1CN1CCCC(C(=O)N2CCN(C)CC2)C1 (stereo not drawn),"inconclusive: 0.282 µM [inhibitor, full curve, poor fit]",–
Fc1ccccc1/C=N/Nc1nn[nH]n1,"inconclusive: 35.5 µM [inhibitor, partial curve, poor fit]",–
Cc1ccc(NC(=O)c2cc3n(n2)CC(c2ccc4c(c2)OCO4)OC3)cc1F (stereo not drawn),inactive,–
Cc1ccc(C(=O)C2OC(=O)C(C)(C)C(=O)C2(C)C)cc1 (stereo not drawn),"inconclusive: 100 µM [inhibitor, single point]",–
CN(CCc1ccccc1)C(=O)c1cccc(NC(=O)Cc2cccc(NC(=O)C3CCN(C(=O)C4CCC4)CC3)c2)c1,"inconclusive: 44.7 µM [inhibitor, partial curve, poor fit]",–
O=C(CCl)c1ccc(Cc2ncc(C(F)(F)F)cc2Cl)s1,"inconclusive: 12.6 µM [inhibitor, partial curve, poor fit]",–
CNC(=O)[C@@H]1CN(C(=O)c2ccc3ncccc3c2)C[C@H]1COC,"inconclusive: 35.5 µM [inhibitor, single point]",–
Cc1ccc(S(=O)(=O)N2CCN(C(=O)c3cc4c(C)nn(-c5ccccc5)c4s3)CC2)cc1,"inconclusive: 0.199 µM [inhibitor, full curve, poor fit]",–
CC(C)C(C)NC(=O)CSc1ccc2ccccc2n1 (stereo not drawn),inactive,–
Cc1nnc(NC(=O)c2cc(=O)c3cc(Cl)cc(Cl)c3o2)s1,"inconclusive: 39.8 µM [inhibitor, partial curve, poor fit]",–
O=C(Nc1cccc2ccccc12)c1ccc([N+](=O)[O-])o1,inactive,–
Cc1nnc(SCc2coc(-c3cccc(F)c3)n2)n1C,"inconclusive: 20 µM [inhibitor, partial curve, poor fit]",–
CC(C)(C)c1cc(-c2n[nH]c(=S)n2-c2ccc(Cl)cc2)n[nH]1,"inconclusive: 112 µM [inhibitor, partial curve, poor fit]",–
Cc1csc(Nc2ccc(Cl)cc2)[n+]1-c1ccc(Cl)cc1,"inconclusive: 44.7 µM [inhibitor, partial curve, poor fit]",–
CC1CCC(C(C)C)C(OC(=O)CSC2=NCCS2)C1 (stereo not drawn),inactive,–
CN(C)CCNC(=O)c1c(CSc2ccc(Cl)cc2)noc1C(=O)NCc1ccccc1,"inconclusive: 44.7 µM [inhibitor, partial curve, poor fit]",–
Cc1ccc(-c2nnnn2C2C/C(=N\NC(N)=S)C3OCC2O3)cc1 (stereo not drawn),"inconclusive: 50.1 µM [inhibitor, partial curve, poor fit]",–
Fc1ccc(-c2[nH]ncc2CN2CCN(c3ccc(F)cc3)CC2)cc1,inactive,–
c1ccc(SCCN2CCc3ccccc3C2)cc1,"inconclusive: 7.94 µM [inhibitor, full curve]",–
COc1ccc(Cl)cc1NC(=O)Cc1coc2cc(C)c(C)cc12,"inconclusive: 39.8 µM [inhibitor, partial curve, poor fit]",–

SMILES,Potency,"activity change, negative = inhibition"
COc1ccc(NC(=O)CCSc2nc(-c3ccc(OC)cc3)cc(C(F)(F)F)n2)cc1,inactive,–
COC(=O)CCCC1=CC2=C(c3ccccc3)C(=O)C(C)(OC(=O)C3CCCC3)C(=O)C2=CN1CCCCO (stereo not drawn),"inconclusive: 79.4 µM [inhibitor, single point]",–
C[C@H]1[C@@H](Cc2cc(Cl)cc(Cl)c2)N(c2ccccc2)c2ccccc2CN1Cc1ccccc1,"inconclusive: 100 µM [inhibitor, single point]",–
O=C(Cn1nc(-c2cccs2)c2ccccc2c1=O)NCCc1ccccc1,"inconclusive: 89.1 µM [inhibitor, single point]",–
N#Cc1ccc(N2CCN(C(=O)c3cccc(C(F)(F)F)c3)CC2=O)cc1,inactive,–
COc1cc(/C=N/NC(=O)c2ccc(Cl)cc2)ccc1OCC(=O)N1CC(C)OC(C)C1 (stereo not drawn),inactive,–
COc1cc(SC)ccc1C(=O)OCC(=O)Nc1cc(C)ccc1C,inactive,–
O=c1[nH]c(Nc2ccccn2)cc2ccccc12,"inconclusive: 44.7 µM [inhibitor, partial curve, poor fit]",–
CCC[C@H]1[C@@H](NS(=O)(=O)c2ccc(F)cc2)CC[C@@]23CCCN2C(=O)CCC[C@@H]13,"inconclusive: 39.8 µM [inhibitor, partial curve, poor fit]",–
Cc1cccc(-c2noc([C@@H]3Cc4nc[nH]c4CN3C(=O)CC(C)(C)CC(=O)O)n2)c1,"inconclusive: 12.6 µM [inhibitor, full curve, poor fit]",–
CCCCCCCCCC1(CC(=O)OCC)SCCN1C(N)=O (stereo not drawn),"inconclusive: 39.8 µM [inhibitor, partial curve, poor fit]",–
CSc1ccc(OC2CCN(Cc3ccccc3)CC2)cc1,inactive,–
CCOC(=O)c1cc(-c2ccc(OC)cc2)nc2ccccc12,"inconclusive: 56.2 µM [inhibitor, partial curve, poor fit]",–
CCOc1ccc(/C(CCC(=O)O)=N/NC(=S)NC(C)C)cc1,"inconclusive: 50.1 µM [inhibitor, partial curve, poor fit]",–
O=C(CNC(=O)[C@@H]1Cc2ccccc2CN1)NCc1ccco1,inactive,–
O=C(Cn1ccn2nc(-c3ccc(F)cc3)c(CO)c2c1=O)Nc1ccc2c(c1)OCO2,inactive,–
Nc1ccc2oc(-c3cccc4ccccc34)nc2c1,"inconclusive: 89.1 µM [inhibitor, single point]",–
Cc1cc(C)c2c(-n3cccc3)nn(CCCC(=O)Nc3ccc(F)cc3C)c2n1,"inconclusive: 79.4 µM [inhibitor, partial curve, poor fit]",–
Cc1c2c(=O)n(-c3ccc(F)cc3)[nH]c2cc(=O)n1Cc1ccccc1,active: 11.2 µM,–
CCOC(=O)N1CCN(C(=O)c2cc(-c3ccc(OCC)cc3)nc3ccccc23)CC1,inactive,–
CN1CCC(C(=O)N2Cc3ccccc3CC3(CCCCN3CC3CCNCC3)C2)CC1 (stereo not drawn),"inconclusive: 11.2 µM [inhibitor, full curve]",–

# Record cards, as listed above:
# COC(=O)CCCC1=CC2=C(c3ccccc3)C(=O)C(C)(OC(=O)C3CCCC3)C(=O)C2=CN1CCCCO (stereo not drawn) as listed: Potency: inconclusive: 79.4 µM [inhibitor, single point]
# CCOC(=O)N1CCN(C(=O)c2cc(-c3ccc(OCC)cc3)nc3ccccc23)CC1 as listed: Potency: inactive

# The listing continues.

SMILES,Potency,"activity change, negative = inhibition"
CC1=C(C(=O)N2CCN(c3cc(C)ccc3C)CC2)C2(CCC(C)CC2)OC1=O (stereo not drawn),"inconclusive: 89.1 µM [inhibitor, partial curve, poor fit]",–
CN1C(=O)N(CC(=O)N2CCN(S(=O)(=O)c3ccc(Cl)s3)CC2)C(=O)C12CCCCC2,"inconclusive: 70.8 µM [inhibitor, partial curve, poor fit]",–
Cc1cccc(C(C)Nc2ccc([N+](=O)[O-])cn2)c1 (stereo not drawn),"inconclusive: 126 µM [inhibitor, single point]",–
Cc1ccc2c(c1)nc1n2[C@@H](CNCc2ccc(S(C)(=O)=O)cc2)COC1,inactive,–
CCOC(=O)C1CCN(C(=O)CCC(=O)NCCC2=CCCCC2)CC1,"inconclusive: 100 µM [inhibitor, single point]",–
CCn1cc(CN2CCN(C(=O)C3CCCNC3)CC2)ccc1=O (stereo not drawn),"inconclusive: 5.01 µM [inhibitor, full curve, poor fit]",–
O=C(NCc1ccccc1)[C@]1(C(F)(F)F)C[C@H](CCc2ccccc2)CCCO1,"inconclusive: 35.5 µM [inhibitor, partial curve]",–
COC(=O)/C(C#N)=C\c1c(OC)[nH]c2ccccc12,"inconclusive: 44.7 µM [inhibitor, partial curve, poor fit]",–
O=C(Cn1c(NCCCO)nc2ccccc21)c1ccc(Cl)cc1,"inconclusive: 6.31 µM [inhibitor, full curve, poor fit]",–
Cc1ccc(S(=O)(=O)N2[C@@H](c3ccc(Cl)c(Cl)c3)C(C(=O)O)=C[C@H]2CC2CCCC2)cc1,active: 28.2 µM,–
O=C1NC2(Cc3ccccc31)CN(CC1CCOCC1)C2,–,inactive: 3.82% [at 12.5 µM]
CCCn1c(SCc2ncc(-c3cccc(Cl)c3)o2)n[nH]c1=O,"inconclusive: 20 µM [inhibitor, partial curve, poor fit]",–
CCC(OC(=O)CN1C(=O)C(=O)c2ccccc21)C(=O)Nc1ccc(S(N)(=O)=O)cc1 (stereo not drawn),"inconclusive: 112 µM [inhibitor, single point]",–
CCC(=O)Nc1ccc(C(C)NCc2cccs2)cc1 (stereo not drawn),"inconclusive: 89.1 µM [inhibitor, single point]",–
O=S(=O)(Nc1ccc2cn[nH]c2c1)c1ccc(C(F)(F)F)cc1,"inconclusive: 141 µM [inhibitor, single point]",–
Cc1cccc(CNS(=O)(=O)c2ccc(-c3cnc(C4CC4)o3)cc2)c1,"inconclusive: 79.4 µM [inhibitor, single point]",–
COc1ccc(Nc2cc3[nH]c(-c4cccc(C(F)(F)F)c4)cc3cn2)cc1,"inconclusive: 79.4 µM [inhibitor, partial curve, poor fit]",–
CCOc1ccc([C@@H]2CC=C(C(=O)O)CN2S(=O)(=O)c2ccc(C)cc2)cc1,"inconclusive: 25.1 µM [inhibitor, partial curve, poor fit]",–
O=C(NCCCN1CCc2ccccc2C1)C1CCCCC(=O)N1Cc1ccccc1 (stereo not drawn),inactive,–
CCCNc1c(NC(=O)NCc2ccc(F)cc2)c(=O)oc2ccccc12,"inconclusive: 100 µM [inhibitor, partial curve, poor fit]",–
C=CCOC(=O)C1=C[C@H](C2CCCCC2)C[C@H](OCc2ccc(CO)cc2)O1,"inconclusive: 56.2 µM [inhibitor, partial curve, poor fit]",–
